Test results taken from PMC8749436.
No constants are given. Whether binding was seen depends on the method and setting. In cells and extracts the contact can be indirect. Binding calls can cover weak binding; strength is not graded here. For some assays here: Sequences can lack the tags named with a protein.

Chains of the proteins cited; added tags and fusions are not shown. Lines headed by an entry give the natural chain unless they say otherwise; changes in a name come on top.
UniProt P09958: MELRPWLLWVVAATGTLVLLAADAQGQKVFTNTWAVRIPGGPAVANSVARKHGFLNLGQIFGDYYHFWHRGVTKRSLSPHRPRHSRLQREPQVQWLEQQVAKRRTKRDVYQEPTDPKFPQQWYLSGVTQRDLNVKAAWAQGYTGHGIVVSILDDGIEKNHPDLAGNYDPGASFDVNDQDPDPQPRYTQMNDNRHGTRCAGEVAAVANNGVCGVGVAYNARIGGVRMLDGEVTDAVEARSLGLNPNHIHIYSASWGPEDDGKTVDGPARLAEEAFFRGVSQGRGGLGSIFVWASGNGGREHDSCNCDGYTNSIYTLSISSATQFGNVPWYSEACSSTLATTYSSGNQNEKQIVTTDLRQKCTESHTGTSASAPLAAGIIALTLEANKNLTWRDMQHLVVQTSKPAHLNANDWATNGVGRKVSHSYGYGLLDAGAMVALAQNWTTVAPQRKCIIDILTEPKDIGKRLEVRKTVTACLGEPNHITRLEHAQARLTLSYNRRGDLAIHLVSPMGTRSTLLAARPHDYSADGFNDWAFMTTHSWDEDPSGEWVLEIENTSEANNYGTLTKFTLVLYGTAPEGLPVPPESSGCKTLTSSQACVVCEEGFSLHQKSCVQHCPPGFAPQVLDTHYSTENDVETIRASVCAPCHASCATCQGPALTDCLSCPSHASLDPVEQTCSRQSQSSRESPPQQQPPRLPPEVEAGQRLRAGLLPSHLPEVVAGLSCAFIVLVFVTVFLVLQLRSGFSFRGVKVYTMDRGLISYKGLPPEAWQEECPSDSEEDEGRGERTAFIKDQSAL

What was measured:
[1] = target: T1, α-SNAP-Flag (human) (UniProt P54920); experiment: co-IP
T1 sequence: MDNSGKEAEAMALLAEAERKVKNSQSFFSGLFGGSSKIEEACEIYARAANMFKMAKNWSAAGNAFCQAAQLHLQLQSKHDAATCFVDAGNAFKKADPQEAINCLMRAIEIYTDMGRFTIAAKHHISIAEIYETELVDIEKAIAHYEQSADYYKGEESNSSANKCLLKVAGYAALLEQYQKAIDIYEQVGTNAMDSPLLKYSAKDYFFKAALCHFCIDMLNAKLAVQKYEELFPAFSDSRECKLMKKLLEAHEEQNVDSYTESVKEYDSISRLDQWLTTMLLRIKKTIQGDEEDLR

[2] = target: furin-VN (human) (UniProt P09958); experiment: split reporter; BiFC (split Venus) of α-SNAP-VC and furin-VN cotransfected into HEK293 cells; fixed at 24 h; confocal microscopy with GOLGA5 or calnexin staining

## furin-hemagglutinin (from UniProt P09958) (enzyme)
[1]
  binding: binds

B1: α-SNAP-VC (protein, UniProt P54920 1-295)
chain: T1 sequence
[2]
  binding: binds
